# PubChem BioAssay AID652243 | Drosophila RNAi Screening Center – 2013
# Aim: 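Knock-downs that decrease or increase androgen receptor reporter signal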 (primary screen)
# Cells: Drosophila S2R+ cells
# Reagents: long dsRNA against Drosophila genes
# Timing: 72 h (48 h, then 24 h hormone)
# Treatment: synthetic androgen R1881 at 10 nM for 24 h
# Measured: 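Firefly light from an androgen-responsive reporter and Renilla control light per well, raw and unnormalised, for each of two replicates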
# Reading the numbers: firefly reporter light: higher = more light from androgen-responsive reporter; Renilla control light: higher = more constitutive control signal (cell number, transfection)
# Rule for the call: 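Hit when the log firefly-to-Renilla ratio dropped or increased by a fixed fold versus the mean of GFP or LacZ controls across duplicate plates; lowering cut given as 1.5 and as 3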
# Calls: active = hit: reporter lowered or raised; inactive = no hit
# The deposit covers about 24,000 reagents; below is an unselected part of those that have a named target and a result. In the full data, 246 (1%) are marked active. 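Plates not normalised; calls are printed but the firefly/Renilla ratio behind them is not deposited; fold cut for lowering reported inconsistently.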 The raw values are shown without normalisation. The numbers tell different reagents against one gene apart. Names joined by + are all predicted targets of the reagent. No sequences are given here. Not stated in the record: the amount of reagent.
gene,dsRNA no.,"firefly reporter light, replicate 1","firefly reporter light, replicate 2","Renilla control light, replicate 1","Renilla control light, replicate 2",activity call
c12.1,1,3.45e5,3.99e5,2.76e6,3.82e6,inactive
c12.1,2,5.13e5,6.45e5,8.34e5,6.89e5,inactive
CG4497,1,7.03e5,7.23e5,1.79e6,1.93e6,inactive
Cenp-C,1,90856,98867,1.83e6,1.68e6,inactive
Cenp-C,2,9.14e5,9.44e5,1.07e6,1.14e6,inactive
Septin1,1,4.05e5,2.20e5,3.71e5,2.32e5,inactive
CG2972,1,76244,53689,6.62e5,6.57e5,inactive
CG2972,2,6.63e5,4.18e5,1.01e6,8.10e5,inactive
Pat1,1,1.39e5,1.63e5,6.96e5,7.13e5,inactive
Pat1,2,2.52e5,2.99e5,5.61e5,6.19e5,inactive
Myo95E,1,1.34e5,1.08e5,6.09e5,6.10e5,inactive
MED6,1,70631,1.22e5,6.04e5,7.65e5,inactive
CG8915,1,1.42e5,1.90e5,1.10e6,9.70e5,inactive
sunz,1,63846,38107,9.95e5,9.57e5,inactive
Mos,1,2.65e5,2.14e5,1.35e6,1.57e6,inactive
Mos,2,,,,,inactive
CG15059,1,5.55e5,5.76e5,3.97e6,3.86e6,inactive
CG15059,2,4.79e5,3.47e5,1.61e6,1.48e6,inactive
CG15059,3,8.94e5,7.15e5,1.99e6,2.06e6,inactive
trh,1,91400,1.64e5,1.76e6,2.19e6,inactive
trh,2,96938,1.31e5,1.59e6,2.02e6,inactive
trh,3,1.04e6,9.49e5,1.20e6,1.08e6,inactive
yellow-f,1,69036,65604,1.48e6,1.52e6,inactive
yellow-f,2,2.65e5,2.22e5,8.06e5,6.73e5,inactive
l(3)neo38,1,1.88e5,2.20e5,2.08e6,1.36e6,inactive
l(3)neo38,2,1.17e5,1.70e5,2.78e6,2.93e6,inactive
l(3)neo38,3,7.06e5,6.04e5,1.12e6,8.38e5,inactive
l(3)neo38,4,4.75e5,4.71e5,8.07e5,6.90e5,inactive
l(3)neo38,5,4.31e5,2.54e5,6.13e5,5.18e5,inactive
l(1)G0004,1,1.16e5,48818,6.71e5,4.64e5,inactive
CG42336,1,1.65e5,1.48e5,2.61e5,3.17e5,inactive
CG42336,2,2.55e5,93879,1.41e6,9.20e5,inactive
CG42336,3,2.73e5,2.26e5,2.20e6,2.15e6,inactive
CG42336,4,4.77e5,4.60e5,1.42e6,1.65e6,inactive
CG42336,5,3.35e5,3.28e5,8.60e5,8.60e5,inactive
Mgat1,1,40740,45627,8.30e5,8.75e5,inactive
RhoGAP15B,1,1.09e5,1.00e5,5.79e5,6.07e5,inactive
RhoGAP15B,2,2.91e5,2.52e5,3.58e6,3.52e6,inactive
CG9777,1,2.18e5,2.47e5,3.06e6,2.68e6,inactive
CG3961,1,14728,36502,1.80e5,1.79e5,inactive
CG3961,2,2.70e5,4.18e5,3.33e6,4.70e6,inactive
CG11267,1,3.40e5,2.91e5,2.74e6,1.62e6,inactive
Cdc16,1,1.71e5,1.78e5,2.49e6,2.48e6,inactive
dpr12,1,3.65e5,3.28e5,2.17e6,2.00e6,inactive
dpr12,2,2.71e5,3.39e5,1.66e6,1.77e6,inactive
CG8155,1,7.19e5,8.60e5,1.32e6,1.09e6,inactive
CG8155,2,9.79e5,9.71e5,2.34e6,2.23e6,inactive
CG8155,3,5.48e5,5.96e5,9.19e5,1.47e6,inactive

Already shown: entries from further up.
gene,dsRNA no.,"firefly reporter light, replicate 1","firefly reporter light, replicate 2","Renilla control light, replicate 1","Renilla control light, replicate 2",activity call
Cenp-C,1,90856,98867,1.83e6,1.68e6,inactive
Cenp-C,2,9.14e5,9.44e5,1.07e6,1.14e6,inactive
Septin1,1,4.05e5,2.20e5,3.71e5,2.32e5,inactive
CG2972,1,76244,53689,6.62e5,6.57e5,inactive
CG2972,2,6.63e5,4.18e5,1.01e6,8.10e5,inactive
Pat1,1,1.39e5,1.63e5,6.96e5,7.13e5,inactive
Pat1,2,2.52e5,2.99e5,5.61e5,6.19e5,inactive
Myo95E,1,1.34e5,1.08e5,6.09e5,6.10e5,inactive
MED6,1,70631,1.22e5,6.04e5,7.65e5,inactive

The listing continues:
gene,dsRNA no.,"firefly reporter light, replicate 1","firefly reporter light, replicate 2","Renilla control light, replicate 1","Renilla control light, replicate 2",activity call
galla-2,1,5.57e5,6.97e5,2.53e6,3.53e6,inactive
galla-2,2,7.91e5,6.40e5,1.46e6,1.34e6,inactive
RpS29 + snoRNA:Psi18S-1275,1,1.11e5,1.42e5,2.16e6,2.51e6,inactive
blanks,1,2.10e5,2.45e5,1.81e6,2.13e6,inactive
IKKbeta,1,74548,1.34e5,7.48e5,6.30e5,inactive
IKKbeta,2,,,,,inactive
IKKbeta,3,,,,,inactive
CG31098,1,2.02e5,2.39e5,1.83e6,1.89e6,inactive
CG10026,1,2.12e5,2.52e5,1.87e6,1.35e6,inactive
CG8407,1,1.97e5,1.36e5,1.55e6,1.77e6,inactive
osp,1,1.33e5,2.31e5,6.56e5,6.54e5,inactive
osp,2,3.38e5,5.13e5,1.06e6,1.32e6,inactive
Egfrap,1,2.21e5,1.88e5,2.33e6,2.06e6,inactive
Egfrap,2,70428,1.02e5,1.12e6,1.60e6,inactive
Egfrap,3,7.04e5,8.38e5,1.14e6,1.25e6,inactive
Sec61gamma,1,2.67e5,2.29e5,1.07e6,6.23e5,inactive
Sec61gamma,2,8.49e5,8.64e5,9.34e5,9.06e5,inactive
CG15200,1,4.47e5,4.61e5,3.31e6,3.34e6,inactive
CG15200,2,8.95e5,9.92e5,9.96e5,7.81e5,inactive
TTLL6A,1,1.56e5,1.52e5,2.30e6,2.19e6,inactive
TTLL6A,2,6.93e5,7.67e5,8.82e5,8.17e5,inactive
Polr1E,1,1.70e5,1.38e5,2.33e6,1.81e6,inactive
Polr1E,2,79640,78240,7.21e5,8.21e5,inactive
CG4691,1,9.75e5,1.25e6,1.25e6,1.34e6,inactive
CG4691,2,7.00e5,4.85e5,2.31e6,1.27e6,inactive
cas,1,49791,86520,1.56e6,1.83e6,inactive
cas,2,6.91e5,1.02e6,6.53e5,6.70e5,inactive
cas,3,7.41e5,8.52e5,1.64e6,1.40e6,inactive
